Counter-ions that a name gives are not always drawn. Some of the results follow. Most values come without repeats; read them as rough.

The subject of this assay is Drosophila melanogaster DPAGT1 (Alg7) RNAi eye model. The experiment in a line: eye size Z-score vs DMSO-treated DPAGT1 model flies; higher = larger eye (suppression of DPAGT1 phenotype). The conditions noted are these: 5 uM.
As to `CSc1nc2cc(Cl)c(Oc3cccc(Cl)c3Cl)cc2[nH]1` [Triclabendazole], the “eye size Z-score” value is -0.12.

Consider `COc1cccc2c1C(=O)c1c(O)c3c(c(O)c1C2=O)C[C@@](O)(C(=O)CO)C[C@@H]3O[C@H]1C[C@H](N)[C@@H](O)[C@H](C)O1` [Epirubicin hydrochloride], for which the “eye size Z-score” value was -0.1.

For the molecule `CCCN(CCC)CCc1cccc2c1CC(=O)N2` [Ropinirole hydrochloride], the “eye size Z-score” value is -1.19.

`CC(=O)O[C@H]1C(=O)[C@@]2(C)[C@H]([C@H](OC(=O)c3ccccc3)[C@]3(O)C[C@H](OC(=O)[C@H](O)[C@@H](NC(=O)c4ccccc4)c4ccccc4)C(C)=C1C3(C)C)[C@]1(OC(C)=O)CO[C@@H]1C[C@@H]2O` [Paclitaxel]: the “eye size Z-score” value was 1.6.

In the case of `COc1c(-c2ccc3cc(NS(C)(=O)=O)ccc3c2)cc(-n2ccc(=O)[nH]c2=O)cc1C(C)(C)C` [Dasabuvir], the “eye size Z-score” value was -0.03.

For the molecule `C/C=C(/C(=C/C)c1ccc(O)cc1)c1ccc(O)cc1` [Dienestrol], the “eye size Z-score” value was 0.37.

With `Cc1ncc([N+](=O)[O-])n1CC(C)O` (centres undefined) [Secnidazole], the “eye size Z-score” value worked out at 0.46.

For the molecule `O=C(O)c1ccccc1OP(=O)(O)O` [Fosfosal], the “eye size Z-score” value was 0.52.

Turning to `COc1ccc2cc([C@H](C)C(=O)O)ccc2c1` [(S)-Naproxen], the “eye size Z-score” value turned out to be 0.45.

Turning to `Nc1cc(N2CCCCC2)nc(N)[n+]1[O-]` [Minoxidil], the “eye size Z-score” value is 1.22.

As to `CC1(C)S[C@@H]2[C@H](NC(=O)[C@H](N)c3ccccc3)C(=O)N2[C@H]1C(=O)O` [Ampicillin trihydrate], the “eye size Z-score” value was determined as 0.33.

In the case of `CC1(C)S[C@@H]2[C@H](NC(=O)[C@H](N)c3ccccc3)C(=O)N2[C@H]1C(=O)O` [Ampicillin sodium salt], the “eye size Z-score” value worked out at 1.64.

With `O=C(O)c1cc(=O)[nH]c(=O)[nH]1` [Orotic acid], the “eye size Z-score” value worked out at 1.3.

In the case of `CCC(NC(C)C)C(O)c1ccc(O)c2[nH]c(=O)ccc12` (centres undefined) [Procaterol hydrochloride], the “eye size Z-score” value was 0.35.

For the molecule `Nc1ncnc2c1ncn2C1OC(COP(=O)(O)O)C(O)C1O` (centres undefined) [Adenosine 5'-monophosphate monohydrate], the “eye size Z-score” value stood at 0.5.

In the case of `CCOC(=O)[C@H](CCc1ccccc1)N[C@@H](C)C(=O)N1C(=O)N(C)C[C@H]1C(=O)O` [Imidapril hydrochloride], the “eye size Z-score” value is -0.55.

Turning to `CN1CCCN(C(c2ccccc2)c2ccc(Cl)cc2)CC1` (centres undefined) [Homochlorcyclizine dihydrochloride], the “eye size Z-score” value is 0.13.

Regarding `C[C@@H]1C[C@H]2[C@@H]3CCC4=CC(=O)C=C[C@]4(C)[C@@]3(Cl)[C@@H](O)C[C@]2(C)[C@@]1(OC(=O)c1ccco1)C(=O)CCl` [Mometasone furoate], the “eye size Z-score” value was found to be 0.19.

In the case of `CCOc1ccc2nc(S(N)(=O)=O)sc2c1` [Ethoxzolamide], the “eye size Z-score” value was -0.1.

The values above are taken from the supplement of paper PMC11542785.
